Laboratory results reported in article PMC11232239.
These are yes or no findings as the source states them, for the method shown. Binding seen in cells or lysates may run through a third protein. These calls come from enrichment with a bait or labelling near it, and not all partners need be listed.

Amino acid sequences for entries named in this document (tags omitted).
UniProt P28482: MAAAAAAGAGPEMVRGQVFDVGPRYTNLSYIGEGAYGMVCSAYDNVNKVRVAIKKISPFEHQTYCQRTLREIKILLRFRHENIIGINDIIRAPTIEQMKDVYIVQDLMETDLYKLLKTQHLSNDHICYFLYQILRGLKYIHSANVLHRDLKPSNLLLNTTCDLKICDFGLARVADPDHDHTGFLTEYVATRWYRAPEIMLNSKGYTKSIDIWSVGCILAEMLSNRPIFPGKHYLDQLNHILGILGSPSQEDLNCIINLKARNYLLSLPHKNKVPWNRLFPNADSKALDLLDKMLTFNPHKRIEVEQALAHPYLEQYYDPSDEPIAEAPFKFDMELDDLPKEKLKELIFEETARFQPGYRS

Target: T1, phosphofructokinase-platelet (PFKP), endogenous (human (endogenous in LIU-LSC-1)) (UniProt Q01813)
T1 sequence: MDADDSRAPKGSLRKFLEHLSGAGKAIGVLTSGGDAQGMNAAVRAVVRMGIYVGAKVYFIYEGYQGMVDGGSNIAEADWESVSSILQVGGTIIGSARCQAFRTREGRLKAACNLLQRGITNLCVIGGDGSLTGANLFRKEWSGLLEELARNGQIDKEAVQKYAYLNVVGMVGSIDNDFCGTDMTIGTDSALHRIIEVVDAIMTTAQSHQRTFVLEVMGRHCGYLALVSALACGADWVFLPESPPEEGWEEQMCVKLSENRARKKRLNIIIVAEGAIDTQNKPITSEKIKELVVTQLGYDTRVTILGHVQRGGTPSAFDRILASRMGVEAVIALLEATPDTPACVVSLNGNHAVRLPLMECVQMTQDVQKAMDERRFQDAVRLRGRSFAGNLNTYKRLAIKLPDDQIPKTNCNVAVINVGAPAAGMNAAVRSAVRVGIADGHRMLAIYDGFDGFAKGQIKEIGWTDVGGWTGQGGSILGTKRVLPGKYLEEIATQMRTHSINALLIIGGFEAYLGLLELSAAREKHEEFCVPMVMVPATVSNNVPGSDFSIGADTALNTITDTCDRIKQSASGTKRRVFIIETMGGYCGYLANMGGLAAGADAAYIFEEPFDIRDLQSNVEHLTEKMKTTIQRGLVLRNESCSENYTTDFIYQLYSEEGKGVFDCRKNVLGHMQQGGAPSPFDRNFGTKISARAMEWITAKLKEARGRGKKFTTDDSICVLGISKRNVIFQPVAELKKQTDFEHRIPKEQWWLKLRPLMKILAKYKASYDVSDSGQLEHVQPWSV
Experiment: affinity purification with mass spectrometry; anti-PFKP or IgG antibodies on agarose beads, cell lysate supernatant overnight at 4 °C, 4-12% SDS-PAGE, bands cut out, LC/MS; cells not given

binding: binds
Substance: ERK2, endogenous (from UniProt P28482 1-360)
